“And” between values parts separate entries of the source, which are not always exact repeats. Identical values can stand only once. Counter-ions that a name gives are not always drawn. ± gives the standard deviation of the averaged measurements. Some of the results follow. Single values are uncertain, as repeats are few or missing.
Tested on: RAW 264.7
Experiment: cell viability (MTT) relative to vehicle control; higher = more viable cells
Details: stimulus: HMGB1 5 ug/ml, 18 h
[1] = compound concentration: 1 ug/ml

Row | SMILES | cell viability (compound concentration: 3 uM) | cell viability [1]
1 | Nc1ncn([C@@H]2O[C@H](CO)[C@@H](O)[C@H]2O)c(=O)n1 | 71.6 ± 18% | 
2 | Nc1ncn([C@@H]2O[C@H](CO)[C@@H](O)[C@H]2O)c(=O)n1 [5-azacytidine] | 61.2% | 
3 | COc1ccc(CN(CCN(C)C)c2ccccn2)cc1 [Pyrilamine maleate] | 101 ± 2% | 
4 | COc1ccc(CN(CCN(C)C)c2ccccn2)cc1 [Mepyramine] | 94.6% | 
5 | COc1ccc(CN(CCN(C)C)c2ccccn2)cc1 | 99.2% | 
6 | CCCNC(C)C(=O)Nc1ccccc1C (centres undefined) | 102% | 
7 | CCCNC(C)C(=O)Nc1ccccc1C (centres undefined) [Prilocaine hydrochloride] | 100 ± 2.6% | 
8 | CNc1ncnc2c1ncn2[C@H]1C[C@H](OP(=O)(O)O)[C@@H](COP(=O)(O)O)O1 | 103% | 
9 | CC(C)C[C@H](NC(=O)[C@@H](COC(C)(C)C)NC(=O)[C@H](Cc1ccc(O)cc1)NC(=O)[C@H](CO)NC(=O)[C@H](Cc1c[nH]c2ccccc12)NC(=O)[C@H](Cc1cnc[nH]1)NC(=O)[C@@H]1CCC(=O)N1)C(=O)N[C@@H](CCCNC(=N)N)C(=O)N1CCC[C@H]1C(=O)NNC(N)=O [Goserelin] | 112% | 
10 | CC(C)C[C@H](NC(=O)[C@@H](COC(C)(C)C)NC(=O)[C@H](Cc1ccc(O)cc1)NC(=O)[C@H](CO)NC(=O)[C@H](Cc1c[nH]c2ccccc12)NC(=O)[C@H](Cc1cnc[nH]1)NC(=O)[C@@H]1CCC(=O)N1)C(=O)N[C@@H](CCCNC(=N)N)C(=O)N1CCC[C@H]1C(=O)NNC(N)=O | 98.1% | 
11 | Cc1cc(=O)oc2cc(O)ccc12 [Hymecromone] | 126% | 
12 | CNC(=O)c1cc2c(cn1)[nH]c1ccccc12 [N-Methyl-beta-carboline-3-carboxamide] | 108% | 
13 | CCC(=O)N1CCN(C(=O)c2ccccc2)CC1 | 109% | 
14 | CCCN[C@H]1CCc2nc(N)sc2C1 | 90% | 
15 | CCCN[C@H]1CCc2nc(N)sc2C1 [Pramipexole] | 102 ± 10% | 
16 | OC[C@H]1O[C@H]([S-])[C@H](O)[C@@H](O)[C@@H]1O.[Au+] | 103% | 
17 | OC[C@H]1O[C@H]([S-])[C@H](O)[C@@H](O)[C@@H]1O.[Au+] [Aurothioglucose] | 94.3% | 
18 | CCOC(=O)c1ccc(OC(=O)CCCCCNC(=N)N)cc1 | 101% | 
19 | CCOC(=O)c1ccc(OC(=O)CCCCCNC(=N)N)cc1 [Gabexate mesilate] | 84.8% | 
20 | CC[C@]1(O)C[C@@H]2CN(CCc3c([nH]c4ccccc34)[C@@](C(=O)OC)(c3cc4c(cc3OC)N(C)[C@H]3[C@@](O)(C(N)=O)[C@H](O)[C@]5(CC)C=CCN6CC[C@]43[C@@H]65)C2)C1 | 68.8% | 
21 | CC[C@]1(O)C[C@@H]2CN(CCc3c([nH]c4ccccc34)[C@@](C(=O)OC)(c3cc4c(cc3OC)N(C)[C@H]3[C@@](O)(C(N)=O)[C@H](O)[C@]5(CC)C=CCN6CC[C@]43[C@@H]65)C2)C1 [Vindesine] | 99.4% | 
22 | CC(COc1ccc(/C=C/c2ccccc2)cc1)[N+](C)(C)C (centres undefined) | 117% | 
23 | COc1cc2cc3c4cc(OC)c(OC)cc4cc[n+]3c(C)c2cc1OC | 94% | 
24 | c1ccc(C2CN3CCSC3=N2)cc1 (centres undefined) [Tetramisole hydrochloride] | 104 ± 16% | 
25 | c1ccc(C2CN3CCSC3=N2)cc1 (centres undefined) | 111% | 
26 | COc1cccc(-c2cc(=O)c3cc(O)ccc3o2)c1 |  | 86.4%
27 | C=C1c2cccc(O)c2C(=O)C2=C(O)[C@]3(O)C(=O)C(C(N)=O)=C(O)[C@@H](N(C)C)[C@@H]3[C@@H](O)[C@H]12 | 114% | 

Row | SMILES | cell viability (compound concentration: 3 uM) | cell viability [1]
28 | C=C1c2cccc(O)c2C(=O)C2=C(O)[C@]3(O)C(=O)C(C(N)=O)=C(O)[C@@H](N(C)C)[C@@H]3[C@@H](O)[C@H]12 [Methacycline hydrochloride] | 74.7% | 
29 | Cn1c(=O)c2nc[nH]c2n(C)c1=O [Theophylline monohydrate] | 115% | 
30 | Cn1c(=O)c2nc[nH]c2n(C)c1=O [Theophylline] | 117% | 
31 | Cn1c(=O)c2nc[nH]c2n(C)c1=O | 113% | 
32 | CN(C)CCC(c1ccc(Cl)cc1)c1ccccn1 (single isomer, unassigned; (+)) [(+)-Chlorpheniramine maleate] | 103% | 
33 | CSCC[C@H](N)C(=O)Nc1ccc2c(C)cc(=O)oc2c1 [L-Methionine 7-amido-4-methylcoumarin trifluoroacetate salt] |  | 93.3%
34 | Cc1scc2c1N(C(=O)CN1CCN(C)CC1)c1ccccc1NC2=O | 103% | 
35 | Cc1scc2c1N(C(=O)CN1CCN(C)CC1)c1ccccc1NC2=O [Telenzepine] | 101% | 
36 | Cc1scc2c1N(C(=O)CN1CCN(C)CC1)c1ccccc1NC2=O [Telenzepine dihydrochloride] | 109 ± 10% | 
37 | Cc1cc2c(cc1Cl)N(C(=O)Nc1ccc(Oc3cccnc3C)nc1)CC2 | 104% | 
38 | O=C(N[C@@H](Cc1ccccc1)C(=O)CCl)OCc1ccccc1 [Z-L-Phe chloromethyl ketone] | 56.2% | 
39 | Cc1cc2ccc(=O)oc2cc1OC[C@@H](O)C(C)(C)O |  | 94.3%
40 | CCCCOC(=O)NS(=O)(=O)c1sc(CC(C)C)cc1-c1ccc(Cn2c(CC)nc3c(C)cc(C)nc32)cc1 | 93.8% | 
41 | COc1ccc(CCN(C)CCCC(C#N)(c2cc(OC)c(OC)c(OC)c2)C(C)C)cc1OC (racemic) [(±)-Methoxyverapamil hydrochloride] | 103% | 
42 | FC(F)(F)c1ccccc1-n1ccnc1 [1-[2-(Trifluoromethyl)phenyl]imidazole] | 108% | 
43 | COc1cccc(-c2oc3ccccc3c(=O)c2O)c1 |  | 78.8%
44 | COc1cccc(NC(=O)/C=C/c2ccc(Cl)cc2)c1 | 127% | 
45 | Oc1ccccc1O [Pyrocatechol] | 104% | 
46 | CO/N=C(\C(=O)N[C@@H]1C(=O)N2C(C(=O)O)=C(CSc3nc(=O)c(O)nn3C)CS[C@H]12)c1csc(N)n1 | 105% | 
47 | CO/N=C(\C(=O)N[C@@H]1C(=O)N2C(C(=O)O)=C(CSc3nc(=O)c(O)nn3C)CS[C@H]12)c1csc(N)n1 [Ceftriaxone sodium] | 111% | 
48 | c1ccc2c(c1)CCC[C@H]2Nc1nc2ccccc2[nH]1 [NS8593 hydrochloride] | 105% | 
49 | O=C(Nc1cccc2c(=O)cc(-c3nnn[nH]3)oc12)c1ccc(OCCCCc2ccccc2)cc1 [Pranlukast] | 110 ± 3.8% | 
50 | C[C@]12CCC(=O)C=C1CC[C@@H]1[C@@H]2[C@@H](O)C[C@@]2(C)[C@H]1CC[C@]2(O)C(=O)COC(=O)CCC(=O)O [hydrocortisone 21-hemisuccinate] |  | 110%
51 | C[C@]12CCC(=O)C=C1CC[C@@H]1[C@@H]2[C@@H](O)C[C@@]2(C)[C@H]1CC[C@]2(O)C(=O)COC(=O)CCC(=O)O | 108% | 
52 | CC(C)(C)NC[C@H](O)COc1nsnc1N1CCOCC1 [Timolol maleate salt] | 88.7% | 
53 | CC(C)(C)NC[C@H](O)COc1nsnc1N1CCOCC1 | 111% | 
54 | CC(C)(C)NC[C@H](O)COc1nsnc1N1CCOCC1 [Timolol (S)] | 105% | 

Row | SMILES | cell viability (compound concentration: 3 uM) | cell viability [1]
55 | CC(C)(C)NC[C@H](O)COc1nsnc1N1CCOCC1 [S(-)-Timolol maleate] | 112% | 
56 | NCCCC[C@H](N[C@@H](CCc1ccccc1)C(=O)O)C(=O)N1CCC[C@H]1C(=O)O [Lisinopril] | 98.4 ± 6.1% | 
57 | NCCCC[C@H](N[C@@H](CCc1ccccc1)C(=O)O)C(=O)N1CCC[C@H]1C(=O)O | 103% | 
58 | Fc1ccc(C(OCCCc2cnc[nH]2)c2ccc(F)cc2)cc1 | 92.6% | 
59 | CCNC(=O)N1CCN(CCCC(c2ccc(F)cc2)c2ccc(F)cc2)CC1 [Amperozide hydrochloride] | 103% | 
60 | COC1=C(OC)C(=O)C(CCCCCCCCCCO)=C(C)C1=O | 92.8 ± 1.7% | 
61 | COC1=C(OC)C(=O)C(CCCCCCCCCCO)=C(C)C1=O [Idebenone] | 114 ± 7.1% | 
62 | C=CCN1CCc2cc(O)c(O)cc2C(c2ccccc2)C1 (racemic) | 113% | 
63 | O=C1CCC(c2ccc(-n3ccnc3)cc2)=NN1 [Imazodan] | 101% | 
64 | CCOC(=O)[C@H](CCc1ccccc1)N[C@H]1CCc2ccccc2N(CC(=O)O)C1=O [Benazepril HCl] | 109% | 
65 | CCOC(=O)[C@H](CCc1ccccc1)N[C@H]1CCc2ccccc2N(CC(=O)O)C1=O | 89% and 112% | 
66 | COc1cc(-c2oc3c(OC)c(O)cc(O)c3c(=O)c2O)ccc1O [Limocitrin] |  | 138%
67 | CCOC(=O)OC(C)OC(=O)[C@@H]1N2C(=O)[C@@H](NC(=O)[C@H](N)c3ccccc3)[C@H]2SC1(C)C (some centres undefined) [Bacampicillin hydrochloride] | 112% | 
68 | CCOC(=O)OC(C)OC(=O)[C@@H]1N2C(=O)[C@@H](NC(=O)[C@H](N)c3ccccc3)[C@H]2SC1(C)C (some centres undefined) | 102% | 
69 | NC(CCCP(=O)(O)O)C(=O)O (racemic) [(±)-2-Amino-5-phosphonopentanoic acid] | 107% | 
70 | NCC(O)c1ccc(O)c(O)c1 (racemic) [(±)-Norepinephrine (+)bitartrate] | 99.7% | 
71 | O=C(O[C@H]1CN2CCC1CC2)N1CCc2ccccc2[C@@H]1c1ccccc1 | 104% | 
72 | NC(=O)N/N=C/c1ccc([N+](=O)[O-])o1 [Nitrofural] | 95% | 
73 | NC(=O)N/N=C/c1ccc([N+](=O)[O-])o1 | 111% | 
74 | CN1CCCCC1CCN1c2ccccc2Sc2ccc([S+](C)[O-])cc21 (centres undefined) [Mesoridazine besylate] | 84.8% | 
75 | CN1CCCCC1CCN1c2ccccc2Sc2ccc([S+](C)[O-])cc21 (centres undefined) [Mesoridazine] | 97.9 ± 1.5% | 
76 | COc1cc(OC)c(C=C2C(=O)Nc3ccccc32)c(OC)c1 | 96.9% | 
77 | O=C(CNC(=O)c1ccc(Cl)cc1)NO | 110% | 
78 | CN1CCCC(n2nc(Cc3ccc(Cl)cc3)c3ccccc3c2=O)CC1 (centres undefined) [Azelastine HCl] | 112% | 
79 | CN1CCCC(n2nc(Cc3ccc(Cl)cc3)c3ccccc3c2=O)CC1 (centres undefined) | 100% and 95.3% | 

Source: the supplement of paper PMC3682954
